# Reference: paper PMC3911142
# Chains of the proteins cited; added tags and fusions are not shown. Lines headed by an entry give the natural chain unless they say otherwise; changes in a name come on top.
# UniProt P13800: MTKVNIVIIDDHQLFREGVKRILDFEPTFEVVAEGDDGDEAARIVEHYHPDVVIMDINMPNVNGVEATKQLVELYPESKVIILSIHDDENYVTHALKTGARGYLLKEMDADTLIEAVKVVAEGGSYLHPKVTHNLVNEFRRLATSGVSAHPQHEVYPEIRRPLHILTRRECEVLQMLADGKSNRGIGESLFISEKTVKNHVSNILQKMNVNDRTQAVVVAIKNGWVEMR
# Positions count from the first letter of the chain named. Construct, isoform or probe ends are uncertain for at least one entry. A negative result means that nothing was seen under these conditions. Tags and fusion partners may be left off the protein sequences shown.
# Key:
# [1] = biological target: T1, DegU32(Hy)~P H12L (Bacillus subtilis) (UniProt P13800); assay: EMSA; details: phosphorylated; 1 ng 32P-labelled DNA per lane; recombinant protein; label: 32P (T4 PNK); probe letters rebuilt from the primers and the genome
# T1 sequence (looked up, limits assumed): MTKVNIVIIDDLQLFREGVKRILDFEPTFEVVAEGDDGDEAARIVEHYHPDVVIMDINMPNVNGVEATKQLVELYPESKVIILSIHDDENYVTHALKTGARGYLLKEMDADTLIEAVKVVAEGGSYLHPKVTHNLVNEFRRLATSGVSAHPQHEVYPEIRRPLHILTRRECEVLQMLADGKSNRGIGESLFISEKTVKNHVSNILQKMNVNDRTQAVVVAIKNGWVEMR
# [2] = biological target: T2, DegU~P-His6 (Bacillus subtilis) (UniProt P13800); assay: EMSA; details: DegU phosphorylated by DegS, 1 ng 32P-labelled DNA per lane, recombinant protein, protein details: His6, label: 32P (T4 PNK), probe letters rebuilt from the primers and the genome
# T2 sequence (looked up, limits assumed): T1 sequence (looked up, limits assumed) with L12H
Sequence,binding result [1],binding result [2],binding result ([2]; positive control)
GCCAGAATTCGGATCCATTCATAGCCTTCAGCCTTCCCGCGGCTGGCTTCCCGCGCCCCTTTCTGTTAATGATTGGATTATAAAAGAAAACGTTATTATTTAAAAATTGCAAAATAAGCCAATAAGTTCTCTTTAGAGAACAAAATCATGATTTTCCTCTAATTTACTGCACTTCCCTTATTATTTTAAATTTTATAAAGAACGAAAAATTCCTTATAATGAACGAAATAACGACAGGAATAGAGGAGAATTTCATATTATGATTGGAAGAATTATCCGTTTGTACCGTAAAAGAAAAGGCTATTCTATTAATCAGCTGGCTGTTGAGTCAGGCGTATCCAAATCCTATTTAAGCAAGATTGAAAGAGGCGTTCACACGAATCCGTCCGTTCAATTTTTAAAAAAAGTTTCTGCCACACTGGAAGTTGAATTAACAGAATTATTTGACGCAGAAACAATGATGTATGAAAAAATCAGCGGCGGTGAAGAAGAATGGCGCGTACATTTAGTGCAAGCCGTACAGAATTCTCCA (double strand) [epsA promoter region],no binding,no binding,–
GGTAAAGCCTATGAATTCTCCATTTTCTTCTGCTATCAAAATAACAGACTCGTGATTTTCCAAACGAGCTTTCAAAAAAGCCTCTGCCCCTTGCAAATCGGATGCCTGTCTATAAAATTCCCGATATTGGTTAAACAGCGGCGCAATGGCGGCCGCATCTGATGTCTTTGCTTGGCGAATGTTCATCTTATTTCTTCCTCCCTCTCAATAATTTTTTCATTCTATCCCTTTTCTGTAAAGTTTATTTTTCAGAATACTTTTATCATCATGCTTTGAAAAAATATCACGATAATATCCATTGTTCTCACGGAAGCACACGCAGGTCATTTGAACGAATTTTTTCGACAGGAATTTGCCGGGACTCAGGAGCATTTAACCTAAAAAAGCATGACATTTCAGCATAATGAACATTTACTCATGTCTATTTTCGTTCTTTTCTGTATGAAAATAGTTATTTCGAGTCTCTACGGAAATAGCGAGAGATGATATACCTAAATAGAGATAAAATCATCTCAAAAAAATGGGTCTACTAAAATATTATTCCATCTATTACAATAAATTCACAGAATAGTCTTTTAAGTAAGTCTACTCTGAATTTTTTTAAAAGGAGAGGGTAAAGAGTGAGAAGCAAAAAATTGTGGATCAAGCTTAGAC (double strand) [aprE promoter region],–,–,binds
TGGCGAATTCATAGACAAATCACACATTGTTTGATCATCATGCTGTCACCCTTTCTTTGTTTATTATTACCAAATAATAATGGGATATGCATTTAAATTCTCACATAACAATCCCAAAAATTTCTAAAAAATTGAAAAAATGAGCAATACTGAGCAAGACTTTGTAATATGATGAAAACATTCTTTTAAACGAACAAAATGAGCGATTTCGGTGTTTTTAAATCTATAAATCGTTGATTATACTCTATTTGTGAAGTTCTTTAAAGAGAACGATTGTCATATCAAGTTACAGTGTTTTACAGGAGGTAAGATGGATCCGAATTCTGGC (double strand) [tapA promoter region],no binding,no binding,–
